Results from article PMC5133908.
Results are given in words; binding and its absence hold for the method and conditions named. In cells and extracts the contact can be indirect. Some results given as binding are weak or reduced against the parent protein; the word gives no strength. Tags and fused reporters may be left off the sequences shown.

Target: T1, SEPT12-GFP (human) (UniProt Q8IYM1)
T1 sequence: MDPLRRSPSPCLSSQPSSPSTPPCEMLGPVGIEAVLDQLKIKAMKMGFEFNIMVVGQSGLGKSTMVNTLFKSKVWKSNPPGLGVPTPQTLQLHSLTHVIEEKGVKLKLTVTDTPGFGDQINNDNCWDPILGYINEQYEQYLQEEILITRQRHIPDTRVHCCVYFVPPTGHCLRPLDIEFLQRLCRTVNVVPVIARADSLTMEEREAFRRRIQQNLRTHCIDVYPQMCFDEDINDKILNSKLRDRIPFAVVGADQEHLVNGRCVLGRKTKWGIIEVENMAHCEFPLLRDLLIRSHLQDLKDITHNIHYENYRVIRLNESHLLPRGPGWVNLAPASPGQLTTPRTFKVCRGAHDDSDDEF
Assay: co-IP; NT2D1 cells cotransfected with pFLAG-NDC1 and pGFP-SEPT12; lysates immunoprecipitated with anti-GFP antibody (control: nonspecific IgG), immunoblot with anti-FLAG and anti-GFP

B1: FLAG-NDC1 (protein, UniProt Q9BTX1 1-674)
chain: MATAVSRPCAGRSRDILWRVLGWRIVASIVWSVLFLPICTTVFIIFSRIDLFHPIQWLSDSFSDLYSSYVIFYFLLLSVVIIIISIFNVEFYAVVPSIPCSRLALIGKIIHPQQLMHSFIHAAMGMVMAWCAAVITQGQYSFLVVPCTGTNSFGSPAAQTCLNEYHLFFLLTGAFMGYSYSLLYFVNNMNYLPFPIIQQYKFLRFRRSLLLLVKHSCVESLFLVRNFCILYYFLGYIPKAWISTAMNLHIDEQVHRPLDTVSGLLNLSLLYHVWLCGVFLLTTWYVSWILFKIYATEAHVFPVQPPFAEGSDECLPKVLNSNPPPIIKYLALQDLMLLSQYSPSRRQEVFSLSQPGGHPHNWTAISRECLNLLNGMTQKLILYQEAAATNGRVSSSYPVEPKKLNSPEETAFQTPKSSQMPRPSVPPLVKTSLFSSKLSTPDVVSPFGTPFGSSVMNRMAGIFDVNTCYGSPQSPQLIRRGPRLWTSASDQQMTEFSNPSPSTSISAEGKTMRQPSVIYSWIQNKREQIKNFLSKRVLIMYFFSKHPEASIQAVFSDAQMHIWALEGLSHLVAASFTEDRFGVVQTTLPAILNTLLTLQEAVDKYFKLPHASSKPPRISGSLVDTSYKTLRFAFRASLKTAIYRITTTFGEHLNAVQASAEHQKRLQQFLEFKE
- binding: binds
